Source: PubChem BioAssay AID248 (DTP/NCI, 2004)
The list shows only some results of the screen, not a fair sample: it gathers tests that were run many times, whatever their T/C, doses with no T/C, and many T/C values between a quarter and a half above the control. Further doses and runs are listed elsewhere. T/C is the treated group as % of the vehicle group. Some entries give survivors of the animals treated and no T/C: the source files T/C as zero there, which appears to mark a toxic dose or a test without result, not a measured value. Some survivor counts are full or nearly so, which does not show that the dose was tolerated: survival well below the control is almost never listed, so the zero probably covers shortened survival too. Survivors were counted at the toxicity check, usually on the fifth day, unless a day is given; later deaths do not show. Schedule codes are those of the source, read here as Q, the interval in days (D) or hours (H), X, the number of doses. Some schedules carry Z or #; the key to these is not given. Some molecules as drawn cover several salts, stereoisomers or complexes of the source; a dose is that of the sample tested. For survival time, this PubChem deposit counts one and a half times the control or more as active, and values a quarter to a half above the control carry no call in these data; other NCI protocols may use other cut-offs.

Test system: L1210 leukemia ip in BDF1 mice, survival T/C
Experiment: NCI In Vivo Anticancer Drug Screen. Data for tumor model L1210 Leukemia (intraperitoneal) in B6D2F1 (BDF1) mice
Settings: T/C endpoint: mean survival time, higher T/C = longer survival
[1] = dose: 400.0 mg/kg/injection, schedule: Q01DX001 (ip), vehicle: saline
[2] = dose: 400.0 mg/kg/injection, schedule: Q04DX003 (ip), vehicle: saline with Tween-80
[3] = dose: 400.0 mg/kg/injection, schedule: Q01DX009 (ip), vehicle: saline with Tween-80

SMILES: CCN1CCC(CCOC)(CN2c3ccccc3Sc3ccccc32)C1 (stereo unspecified)
- survivor count (dose: 100.0 mg/kg/injection, schedule: Q04DX003 (ip), vehicle: saline): 2 of 6
- survivor count (dose: 200.0 mg/kg/injection, schedule: Q04DX003 (ip), vehicle: saline): 2 of 6
- survivor count (dose: 400.0 mg/kg/injection, schedule: Q04DX003 (ip), vehicle: saline): 0 of 6

SMILES: CC(C)(C)c1ccc(S(=O)(=O)C/C=C/COc2ccccc2)cc1
- survivor count (dose: 300.0 mg/kg/injection, schedule: Q01DX009 (ip), vehicle: Klucel (hydroxypropylcellulose) (HPC)): 5 of 6

SMILES: O=[N+]([O-])c1ccccc1CN1CCCCC1
- survivor count (dose: 40.0 mg/kg/injection, schedule: Q01DX001 (ip), vehicle: saline): 1 of 4
- survivor count (dose: 50.0 mg/kg/injection, schedule: Q01DX001 (ip), vehicle: saline): 1 of 4
- survivor count (dose: 80.0 mg/kg/injection, schedule: Q01DX001 (ip), vehicle: saline): 0 of 4
- survivor count (dose: 100.0 mg/kg/injection, schedule: Q01DX001 (ip), vehicle: saline): 0 of 4
- survivor count (dose: 200.0 mg/kg/injection, schedule: Q01DX001 (ip), vehicle: saline): 0 of 4
- survivor count [1]: 0 of 4

SMILES: CC(=O)Nc1ccc2cnn(C(C)=O)c2c1
- survivor count (dose: 400.0 mg/kg/injection, schedule: Q01DX009 (ip), vehicle: water): 0 of 6

SMILES: O=C(Nc1ccc(Cl)cc1)Nc1ccccc1F
- survivor count (dose: 100.0 mg/kg/injection, schedule: Q04DX003 (ip), vehicle: saline with Tween-80): 6 of 6

SMILES: O=[N+]([O-])c1ccc(-c2ccc([N+](=O)[O-])c(-c3ccccc3)c2)cc1
- survivor count [2]: 6 of 6

SMILES: CN1C2CCC1C(O)C(c1ccccc1)C2 (stereo unspecified)
- survivor count (dose: 75.0 mg/kg/injection, schedule: Q01DX001 (ip), vehicle: acetone): 1 of 6
- survivor count (dose: 150.0 mg/kg/injection, schedule: Q01DX001 (ip), vehicle: acetone): 0 of 6
- survivor count (dose: 300.0 mg/kg/injection, schedule: Q01DX001 (ip), vehicle: acetone): 0 of 6

SMILES: NC(N)=N/N=C/c1cccc2ccccc12
- survivor count (dose: 62.5 mg/kg/injection, schedule: Q01DX Z (ip), vehicle: saline): 0 of 6
- survivor count (dose: 100.0 mg/kg/injection, schedule: Q04DX003 (ip), vehicle: saline sonified): 0 of 6
- survivor count (dose: 125.0 mg/kg/injection, schedule: Q01DX Z (ip), vehicle: saline): 0 of 6
- survivor count (dose: 200.0 mg/kg/injection, schedule: Q04DX003 (ip), vehicle: saline sonified): 1 of 6
- survivor count (dose: 250.0 mg/kg/injection, schedule: Q01DX Z (ip), vehicle: saline): 0 of 6
- survivor count (dose: 400.0 mg/kg/injection, schedule: Q04DX003 (ip), vehicle: saline sonified): 1 of 6
- survivor count (dose: 500.0 mg/kg/injection, schedule: Q01DX Z (ip), vehicle: saline): 0 of 6

SMILES: CC(C)=CCCC(C)C/C=N\O (stereo unspecified)
- survivor count [3]: 6 of 6

SMILES: OCC1OC([Se][Se]C2OC(CO)C(O)C(O)C2O)C(O)C(O)C1O (stereo unspecified)
- survivor count (dose: 25.0 mg/kg/injection, schedule: Q01DX009 (ip), vehicle: saline): 5 of 6
- survivor count (dose: 50.0 mg/kg/injection, schedule: Q01DX009 (ip), vehicle: saline): 3 of 6
- survivor count (dose: 100.0 mg/kg/injection, schedule: Q01DX009 (ip), vehicle: saline): 0 of 6
- survivor count (dose: 200.0 mg/kg/injection, schedule: Q04DX002 (ip), vehicle: saline): 2 of 3
- survivor count (dose: 400.0 mg/kg/injection, schedule: Q04DX002 (ip), vehicle: saline): 1 of 3

SMILES: CCN(CC)C1=C(Cl)C(=O)c2ccccc2C1=O
- survivor count [3]: 2 of 6

SMILES: O=C(C[n+]1ccc2ccccc2c1)c1ccc(-c2ccccc2)cc1
- survivor count [1]: 3 of 6

SMILES: O=C1NC(c2cccc(Cl)c2)N2C(=O)NC(c3cccc(Cl)c3)N12 (stereo unspecified)
- survivor count (dose: 200.0 mg/kg/injection, schedule: Q01DX009 (ip), vehicle: gum acacia): 6 of 6

SMILES: FC(F)(F)c1cccc(B2OCCNCCO2)c1
- survivor count [2]: 2 of 6

SMILES: Cc1cccc(NC=O)c1
- survivor count [2]: 2 of 6

SMILES: CC(C)(C)NC(=O)C1CC2(C)CCC1C2(C)C (stereo unspecified)
- T/C (dose: 300.0 mg/kg/injection, schedule: Q01DX001 (ip), vehicle: other): 126 % of control

SMILES: CCN(CC)CCOc1cc(C)c2cc(Cc3ccccc3)ccc2n1
- survivor count (dose: 400.0 mg/kg/injection, schedule: Q01DX001 (ip), vehicle: other): 0 of 6
